From paper PMC5518872
Results are given in words; binding and its absence hold for the method and conditions named. In cells and extracts the contact can be indirect. Some entries that bind do so weakly or less than the wild type.

Amino acid sequences for entries named in this document (tags omitted).
UniProt Q9R210: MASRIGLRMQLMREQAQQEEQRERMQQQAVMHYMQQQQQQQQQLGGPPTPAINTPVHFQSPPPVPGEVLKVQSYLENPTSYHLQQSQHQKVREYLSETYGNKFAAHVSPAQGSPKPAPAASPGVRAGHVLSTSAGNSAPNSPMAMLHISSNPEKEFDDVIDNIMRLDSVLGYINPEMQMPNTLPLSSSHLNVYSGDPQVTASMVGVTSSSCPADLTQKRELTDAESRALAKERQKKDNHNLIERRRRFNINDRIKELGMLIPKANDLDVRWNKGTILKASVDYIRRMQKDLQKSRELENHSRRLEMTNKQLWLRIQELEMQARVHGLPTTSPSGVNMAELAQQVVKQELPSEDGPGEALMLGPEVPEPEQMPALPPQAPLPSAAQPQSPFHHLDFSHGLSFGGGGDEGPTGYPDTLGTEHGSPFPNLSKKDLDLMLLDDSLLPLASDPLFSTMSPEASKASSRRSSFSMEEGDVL
UniProt P19484: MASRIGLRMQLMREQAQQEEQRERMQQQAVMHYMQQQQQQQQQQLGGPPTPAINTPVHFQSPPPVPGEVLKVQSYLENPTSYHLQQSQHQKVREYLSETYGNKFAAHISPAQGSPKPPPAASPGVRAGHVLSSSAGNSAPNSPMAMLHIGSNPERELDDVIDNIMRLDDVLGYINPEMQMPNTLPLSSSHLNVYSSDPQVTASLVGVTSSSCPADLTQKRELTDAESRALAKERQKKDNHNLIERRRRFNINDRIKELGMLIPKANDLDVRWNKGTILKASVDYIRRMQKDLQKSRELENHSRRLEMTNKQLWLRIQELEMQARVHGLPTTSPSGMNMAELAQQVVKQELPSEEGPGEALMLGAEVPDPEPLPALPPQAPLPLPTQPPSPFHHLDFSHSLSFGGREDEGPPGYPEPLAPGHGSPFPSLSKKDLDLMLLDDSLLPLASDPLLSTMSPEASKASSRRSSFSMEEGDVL
UniProt P63330: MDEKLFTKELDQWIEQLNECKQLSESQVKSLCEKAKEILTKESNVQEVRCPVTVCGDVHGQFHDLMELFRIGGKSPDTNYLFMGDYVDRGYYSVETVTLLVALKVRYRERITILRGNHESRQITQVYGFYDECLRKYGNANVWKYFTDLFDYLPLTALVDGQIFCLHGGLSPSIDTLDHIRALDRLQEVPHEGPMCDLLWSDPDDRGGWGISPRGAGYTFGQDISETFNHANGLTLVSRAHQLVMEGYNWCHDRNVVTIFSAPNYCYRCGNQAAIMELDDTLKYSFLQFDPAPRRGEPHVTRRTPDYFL
UniProt P67775: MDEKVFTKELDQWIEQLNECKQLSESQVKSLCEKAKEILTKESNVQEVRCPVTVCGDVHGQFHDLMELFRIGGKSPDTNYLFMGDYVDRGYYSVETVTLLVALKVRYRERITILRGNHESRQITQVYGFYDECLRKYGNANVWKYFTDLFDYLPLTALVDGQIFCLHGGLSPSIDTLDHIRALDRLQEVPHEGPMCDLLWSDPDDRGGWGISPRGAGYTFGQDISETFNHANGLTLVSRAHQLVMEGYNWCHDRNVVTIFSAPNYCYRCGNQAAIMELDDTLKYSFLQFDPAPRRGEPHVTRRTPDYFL

Experiments:
[1] = target: Transcription factor EB (TFEB) (endogenous, mouse primary hepatocytes) (mouse (endogenous in mouse primary hepatocytes)) (UniProt Q9R210); assay: co-IP; endogenous PPP2CA and TFEB in mouse primary hepatocytes; which protein was precipitated is not given
[2] = target: Transcription factor EB (TFEB) (overexpressed) (UniProt P19484); assay: co-IP; overexpressed PPP2CA and TFEB in HEK293T cells; which protein was precipitated is not given

Substance	binding [1]	binding [2]
PPP2CA, a catalytic subunit of PP2A (endogenous, mouse primary hepatocytes) (from UniProt P63330 1-309) (enzyme)	binds	–
PPP2CA, a catalytic subunit of PP2A (overexpressed) (from UniProt P67775 1-309) (enzyme)	–	binds
